The assay addresses protein arginine methyltransferase 3 (human (endogenous in VSMCs)) (UniProt O60678). Kind of assay: co-IP; Pierce Co-IP Kit; anti-PRMT3 antibody covalently linked to amine-active resin; whole-cell lysate of VSMCs incubated with/without 10 mM β-GP, 4 °C overnight; IgG as negative control; western blot.

Chains of the proteins cited; added tags and fusions are not shown.
UniProt O60678: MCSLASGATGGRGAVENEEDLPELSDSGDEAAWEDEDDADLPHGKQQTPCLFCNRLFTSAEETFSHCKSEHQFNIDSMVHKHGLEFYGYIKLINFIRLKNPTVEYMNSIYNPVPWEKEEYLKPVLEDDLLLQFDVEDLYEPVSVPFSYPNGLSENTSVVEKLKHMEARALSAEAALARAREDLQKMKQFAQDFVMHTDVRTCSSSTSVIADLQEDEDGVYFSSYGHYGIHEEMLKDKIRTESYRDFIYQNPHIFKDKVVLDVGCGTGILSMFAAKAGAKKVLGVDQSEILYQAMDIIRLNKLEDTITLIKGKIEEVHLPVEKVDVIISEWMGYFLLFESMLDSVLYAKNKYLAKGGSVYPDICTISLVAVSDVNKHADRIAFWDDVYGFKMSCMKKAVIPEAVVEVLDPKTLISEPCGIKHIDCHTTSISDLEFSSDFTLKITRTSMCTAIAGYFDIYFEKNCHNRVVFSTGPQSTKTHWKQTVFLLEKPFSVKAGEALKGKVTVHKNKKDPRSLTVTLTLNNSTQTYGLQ
UniProt Q16665: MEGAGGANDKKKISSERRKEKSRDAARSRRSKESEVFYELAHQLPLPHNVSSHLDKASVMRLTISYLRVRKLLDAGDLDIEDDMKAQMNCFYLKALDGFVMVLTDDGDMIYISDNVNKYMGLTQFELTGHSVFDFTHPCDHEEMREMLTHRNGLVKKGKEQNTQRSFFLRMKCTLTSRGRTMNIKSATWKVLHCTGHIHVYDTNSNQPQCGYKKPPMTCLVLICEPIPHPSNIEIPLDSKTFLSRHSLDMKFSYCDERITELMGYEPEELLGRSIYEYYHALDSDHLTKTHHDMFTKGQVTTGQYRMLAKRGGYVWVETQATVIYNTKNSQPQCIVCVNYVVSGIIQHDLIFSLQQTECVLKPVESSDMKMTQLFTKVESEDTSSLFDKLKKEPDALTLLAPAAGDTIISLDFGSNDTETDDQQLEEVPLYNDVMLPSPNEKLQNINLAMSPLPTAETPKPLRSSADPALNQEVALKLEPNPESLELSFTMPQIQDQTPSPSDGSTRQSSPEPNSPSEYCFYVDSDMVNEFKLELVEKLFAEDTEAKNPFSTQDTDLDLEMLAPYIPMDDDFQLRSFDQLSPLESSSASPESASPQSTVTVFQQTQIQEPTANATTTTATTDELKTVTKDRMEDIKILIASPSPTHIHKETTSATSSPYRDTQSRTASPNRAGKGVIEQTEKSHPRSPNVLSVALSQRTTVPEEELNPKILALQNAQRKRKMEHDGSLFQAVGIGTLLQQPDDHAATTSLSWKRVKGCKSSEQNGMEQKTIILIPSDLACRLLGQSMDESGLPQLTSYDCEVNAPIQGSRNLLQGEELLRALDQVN

No constants are given. Whether binding was seen depends on the method and setting. Binding seen in cells or lysates may run through a third protein. Some binding calls cover weakened binding; strength is not graded here.

Consider “hypoxia inducible factor 1 subunit alpha (from UniProt Q16665 1-826)”, for which the binding result was “binds”.

These data come from paper PMC10782741.
